Primary screen of a compound library

The values are deposited in ChEMBL (CHEMBL3988442, “University of Dundee, Small-Polar-MMV Screening Library” (2021)).

Mtb cholesterol medium: 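Whole-cell growth test on Mycobacterium tuberculosis, read after 4 days in a medium based on cholesterol and the lipid DPPC; the read-out is not stated. Concentration: 500 µM. The record gives no direction; compounds that gave an IC50 in retests scored well above the rest, so higher reads as more growth inhibition. Of about 18,000 compounds tested this way, about 900 (5%) reached 50% or more in at least one test.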
Mtb glucose medium: 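Whole-cell growth test on Mycobacterium tuberculosis, read after 3 days in glucose-containing 7H9 medium; the read-out is not stated. Concentration: 500 µM. The record gives no direction; compounds that gave an IC50 in retests scored well above the rest, so higher reads as more growth inhibition. Of about 18,000 compounds tested this way, about 1,400 (7.9%) reached 50% or more in at least one test.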

Values are the deposited “Percent Effect”, in %. The controls that fix the scale are not given in the record; negative values are as filed. Compounds were drawn at random from those tested, without regard to their results.

SMILES	Mtb cholesterol medium	Mtb glucose medium
CN(CCCOc1ccc(F)cc1)CC(=O)NC(N)=O	-14.47%	-15.93%
CC(N)c1nnc(-c2cccc(F)c2)s1 (stereo not given)	-4.04%	-6.545%
CCOC(=O)CCN(CC1CC1)C(=O)c1ccccn1	11.71%	14.45%
COCCNS(=O)(=O)c1ccc(CN)cc1	17.23%	10.44%
CC(C)SCC(=O)Nc1cccnc1-n1cccn1	23.78%	41.88%
NC(=O)CN1CCOC(c2ccccc2C(F)(F)F)C1 (stereo not given)	16.32%	18.85%
CC(C)c1nc(C2(N)CCCC2)no1	12.99%	8.058%
Cc1cncc(C#N)c1	-17.37%	-10.53%
CC(C)CN1CC(CN)OC1=O (stereo not given)	19.88%	15.14%
CC1(C#N)CCCN(C(=O)CCc2cccnc2)C1 (stereo not given)	14.33%	20.3%
Cc1cc(NC(=O)NCc2cnn(C)c2C)ccn1	-5.845%	4.114%
CCOCC(=O)N1C[C@H](CO)C[C@H](CN2CCCC2)C1	-3.85%	6.09%
CCC(C(=O)Nc1cc(C)ccn1)N(C)C (stereo not given)	-9.244%	1.264%
CC1c2cccn2CCN1C(=O)c1ccc(O)nc1 (stereo not given)	-22.75%	-15.62%
CC(C(=O)N1CCOCC1)N1CCn2ccnc2C1 (stereo not given)	-8.118%	-1.195%
CC1CNCC2(CCOCC2)O1 (stereo not given)	12.65%	0.02361%
CCc1c[nH]c(S(=O)(=O)CC(=O)NCc2ccco2)n1	-2.257%	5.906%
COCCNC(=O)C1CN(Cc2ccccc2)CCO1 (stereo not given)	32.25%	47.25%
c1cnn(CCN2CCCC(Cn3cncn3)C2)c1 (stereo not given)	-21.43%	-10.59%
CCOC1CCCN(CCOC(=O)N(C)C)C1 (stereo not given)	-5.188%	1.901%
O=C(NCc1nc(C2CC2)no1)Nc1nncs1	-6.759%	3.261%
COC(=O)CN(c1ccc(C#N)cc1)S(C)(=O)=O	0.7353%	11.05%
CCOC1CC(O)(CNC(=O)c2cnccn2)C1 (stereo not given)	8.193%	27.97%
COC(=O)C(C)(C)NC(=O)Cc1ccc(F)cc1	6.496%	22.69%
O=C1NC(=O)c2cc(C(F)(F)F)ccc21	-2.612%	5.386%
CN1CCN(C(=O)Nc2ccc(F)cc2)CC1	5.322%	18.1%
COC(CN)C1CCCCC1 (stereo not given)	-9.57%	-10.02%
Cc1nnc(SCCCNC(=O)c2cc(Cl)c[nH]2)s1	45.8%	59.73%
CC(C)NC(=O)CS(=O)(=O)Cc1ccccc1F	-4.255%	2.278%
CC1CCCCN1CCS(=O)(=O)CCC(N)=O (stereo not given)	13.24%	36.29%
CCOc1ccc2c(c1)cc(C(=O)NCCOC)n2C	-6.251%	1.374%
O=C(Nc1ccc2c(c1)OCO2)N1CCOCC1	-0.1633%	4.104%

Once more, the final 3:

With CC1CCCCN1CCS(=O)(=O)CCC(N)=O (stereo not given) the screen gave Mtb cholesterol medium: 13.24%; Mtb glucose medium: 36.29%.
With CCOc1ccc2c(c1)cc(C(=O)NCCOC)n2C the screen gave Mtb cholesterol medium: -6.251%; Mtb glucose medium: 1.374%.
With O=C(Nc1ccc2c(c1)OCO2)N1CCOCC1 the screen gave Mtb cholesterol medium: -0.1633%; Mtb glucose medium: 4.104%.